The results in this text go back to PMC9501356, “New Sulfamethoxazole Derivatives as Selective Carbonic Anhydrase IX and XII Inhibitors: Design, Synthesis, Cytotoxic Activity and Molecular Modeling” (Pharmaceuticals, 2022).

One series deals with MCF7 cells. Description: MTT cytotoxicity assay on MCF7 (hypoxia and normoxia). The following applies: Homo sapiens. Format: cell-based. As to the method: was measured at 405nM. […]
Carbonic Anhydrase (CA) catalyzes the reversible reaction of CO2 + […]
H2O = HCO3- + H+. […]
= HCO3- + H+. […]
96 well plate. Substrate blank […]
S2.2.6. Cell culture Protocol
Culture Collection, the cultured cells were grown using DMEM […]
insulin (Sigma), and 1% penicillin-streptomycin antibiotics. Other chemicals […]
S2.2.7. MTT – Cytotoxicity assay protocol […]
with the original culture medium. Absorbance was measured spectrophotometrically at 570 nm wavelength using microplate reader (Bio-Rad, Molecular Devices, CA, USA).
S2.2.8. Annexin V-FITC Assay for apoptosis
Bank (http://www.rcsb.org). The co-crystallized ligands were extracted from […]
docked compounds were energy minimized and rotatable bonds were adjusted and then, they were saved as PDBQT files. The Swiss-PdbViewer […]
missing atoms and energy minimization. Then, the polar hydrogens and […]
using python embedded with AutoDock Vina. Thereafter, the affinity maps […]
process started using the specialized AutoDock4Zn forcefield. The exhaustiveness was adjusted to 32. The settings of the two grid boxes were […]
the co-crystallized ligand. The hCA-IX box was centered toward the […]
On the technique in general: Tetrazolium assays rely on reduction of a dye to a coloured formazan, in cell work by metabolically active cells.

Another series can be described thus: in vitro. The following applies: human.

Each structure is given as a SMILES string. In brackets after ≈: the same amount, converted by molar mass. Like-named read-outs stand apart in the source and are kept apart here.

Consider `CN[C@@H]1C[C@H]2O[C@@](C)([C@@H]1OC)n1c3ccccc3c3c4c(c5c6ccccc6n2c5c31)C(=O)NC4` [Staurosporine, reference compound], for which the IC50 with MCF7 cells (MCF7, hypoxia, read-out: Cytotoxicity (IC50 µg/mL) MCF7 Hypoxia) amounted to 1.63 ± 0.09 µg/mL (≈ 3.49 µM); in the series with MCF7 cells (MCF7, normoxia, read-out: Cytotoxicity (IC50 µg/mL) MCF7 Normoxia), 4.78 ± 0.26 µg/mL (≈ 10.2 µM); in the series “in vitro” it was 23.6 ± 1.27 µg/mL (≈ 50.7 µM).
